Taken from: PubChem BioAssay AID1224826 (NIAID, 2016)
The deposit covers about 17,000 reagents; this is a part drawn at random. About 1,110 of them (6.6%) were called active. 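Active means lowered or raised reporter signal; replicate intensities are raw and not normalised per plate.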 Further read-outs or replicates are left out here.

- Screen: 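Regulators of Tlr4 signalling leading to Tnf-alpha expression in macrophages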 (primary screen)
- Cells: RAW264.7 G9 macrophages from mouse bearing reporters for p65 (GFP) and the Tnf promoter (mCherry)
- Reagent: siRNA pool against mouse genes, 100 nM
- Timing: 16 h of LPS stimulation, after 2 days of siRNA transfection
- Conditions: bacterial lipopolysaccharide (Salmonella minnesota R595), 10 ng/ml
- Measurement: 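Nuclear mCherry signal of the Tnf promoter reporter measured by imaging after background removal, scaled to each plate median and turned into robust z-scores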
- Reading the numbers: Tnf reporter robust z-score: higher = stronger Tnf promoter reporter signal after LPS; Tnf reporter intensity: higher = stronger Tnf promoter reporter signal
- Active means: 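a well counts as active at a score of -1.3 or below (Tlr4 knock-down control median) or above 3 (raised signal); controls and wells holding fewer than 50 cells are excluded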
- Calls: active = Tnf reporter clearly lowered or raised; inactive = no clear change in Tnf reporter

gene knocked down	Tnf reporter robust z-score	fewer than 50 cells in well	Tnf reporter intensity, replicate 1	activity call
Trat1 (T cell receptor associated transmembrane adaptor 1)	0.21	enough cells in well	256	inactive
Bmp7 (bone morphogenetic protein 7)	-0.57	enough cells in well	110	inactive
Tbc1d13 (TBC1 domain family, member 13)	-0.4	enough cells in well	102	inactive
Dalrd3 (DALR anticodon binding domain containing 3)	1.25	enough cells in well	229	inactive
Tfb1m (transcription factor B1, mitochondrial)	-0.31	enough cells in well	226	inactive
Cip2a	-0.31	enough cells in well	79.7	inactive
Hapln3 (hyaluronan and proteoglycan link protein 3)	1.87	enough cells in well	442	inactive
Or14j6 (olfactory receptor family 14 subfamily J member 6)	5.18	enough cells in well	539	active
C5ar2 (complement component 5a receptor 2)	-1.42	enough cells in well	109	active
Irf3 (interferon regulatory factor 3)	-0.81	enough cells in well	182	inactive
Or6c219 (olfactory receptor family 6 subfamily C member 219)	1.15	enough cells in well	97.3	inactive
Cc2d2a (coiled-coil and C2 domain containing 2A)	0.17	enough cells in well	196	inactive
Harbi1 (harbinger transposase derived 1)	0.5	enough cells in well	224	inactive
Arfgef1 (ARF guanine nucleotide exchange factor 1)	-0.56	enough cells in well	196	inactive
Popdc1 (popeye domain cAMP effector 1)	0.23	enough cells in well	115	inactive
Atg4c (autophagy related 4C, cysteine peptidase)		fewer than 50 cells per well; well left out of calls	187	inactive
Pogk (pogo transposable element with KRAB domain)	-0.86	enough cells in well	71.8	inactive
Irgq (immunity-related GTPase family, Q)	0.68	enough cells in well	185	inactive
Zfp868 (zinc finger protein 868)	0	enough cells in well	229	inactive
Eef2k (eukaryotic elongation factor-2 kinase)	0.66	enough cells in well	275	inactive
Lpo (lactoperoxidase)	-0.25	enough cells in well	165	inactive
Antxr1 (anthrax toxin receptor 1)	0.69	enough cells in well	264	inactive
Sharpin (SHANK-associated RH domain interacting protein)		fewer than 50 cells per well; well left out of calls	127	inactive
Crygf (crystallin, gamma F)	-1.16	enough cells in well	121	inactive
Zfp277 (zinc finger protein 277)	0.07	enough cells in well	58.1	inactive
Gdf11 (growth differentiation factor 11)	-0.23	enough cells in well	216	inactive
Ddx39b (DEAD box helicase 39b)	-0.93	enough cells in well	134	inactive
Arl5b (ADP-ribosylation factor-like 5B)	0.3	enough cells in well	177	inactive
Sytl4 (synaptotagmin-like 4)	-0.94	enough cells in well	81.9	inactive
Cd36 (CD36 molecule)	1.69	enough cells in well	377	inactive
Rufy2 (RUN and FYVE domain-containing 2)	-0.02	enough cells in well	114	inactive
Slc25a29	0.18	enough cells in well	108	inactive
Pgls (6-phosphogluconolactonase)	-1.36	enough cells in well	83	active
Gata6 (GATA binding protein 6)	-0.61	enough cells in well	57.5	inactive
Sort1 (sortilin 1)	0.52	enough cells in well	411	inactive
Prkce (protein kinase C, epsilon)	-0.84	enough cells in well	146	inactive
Irf2 (interferon regulatory factor 2)	0.03	enough cells in well	199	inactive
Plscr1 (phospholipid scramblase 1)	-0.64	enough cells in well	107	inactive
Vmn1r52 (vomeronasal 1 receptor 52)	-1.3	enough cells in well	68.9	active
Vmn1r185 (vomeronasal 1 receptor 185)	-1.23	enough cells in well	71.4	inactive
Tsr3 (TSR3 20S rRNA accumulation)	-0.2	enough cells in well	285	inactive
Sack1h (scaffolding CK1 anchoring protein H)	-0.77	enough cells in well	95.5	inactive
Ctnnb1 (catenin beta 1)	0.21	enough cells in well	303	inactive
Prss42 (serine protease 42)	-0.12	enough cells in well	111	inactive
Fxr1 (FMR1 autosomal homolog 1)	1.4	enough cells in well	388	inactive
Psrc1 (proline/serine-rich coiled-coil 1)	-0.57	enough cells in well	116	inactive
Dxo (decapping exoribonuclease)	-0.08	enough cells in well	183	inactive
Egln2 (egl-9 family hypoxia-inducible factor 2)	0.82	enough cells in well	236	inactive
Dipk1a (divergent protein kinase domain 1A)		fewer than 50 cells per well; well left out of calls	303	inactive
Trip4 (thyroid hormone receptor interactor 4)	0.04	enough cells in well	230	inactive
Tubgcp3 (tubulin, gamma complex component 3)	0.4	enough cells in well	285	inactive
Zfp758 (zinc finger protein 758)	0.96	enough cells in well	267	inactive
Celf6 (CUGBP, Elav-like family member 6)		fewer than 50 cells per well; well left out of calls	40.8	inactive
Gm5089 (predicted gene 5089)	0.47	enough cells in well	217	inactive
Slc50a1		fewer than 50 cells per well; well left out of calls	72.2	inactive
Lama1 (laminin, alpha 1)	-0.01	enough cells in well	258	inactive
Mphosph10	2.3	enough cells in well	297	inactive
Rab15 (RAB15, member RAS oncogene family)	-0.82	enough cells in well	61.5	inactive
